No constants are given. Whether binding was seen depends on the method and setting. Binding seen in cells or lysates may run through a third protein. Some results given as binding are weak or reduced against the parent protein; the word gives no strength. For some of these results: Tags and fused reporters may be left off the sequences shown. Each block holds one molecule with its values, some of them ahead of it.
Experiments:
Assay in all cases: co-IP; reciprocal immunoprecipitations (anti-KLK8, anti-NCAM1) from rat hippocampus tissue and HT22 cell lysates, western blot; IgG as control
[1] = target: T1, Tissue kallikrein-related peptidase 8 (KLK8) in HT22 cells (not stated (HT22 murine cells; endogenous or from Ad-KLK8 not told)) (UniProt Q61955)
T1 sequence: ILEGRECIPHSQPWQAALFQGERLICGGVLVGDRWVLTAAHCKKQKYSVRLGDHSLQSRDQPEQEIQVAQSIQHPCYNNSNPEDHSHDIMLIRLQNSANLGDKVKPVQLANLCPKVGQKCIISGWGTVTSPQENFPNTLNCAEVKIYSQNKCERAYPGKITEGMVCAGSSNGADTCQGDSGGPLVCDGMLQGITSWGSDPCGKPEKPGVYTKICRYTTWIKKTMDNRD

Sequences of proteins named here, by UniProt entry; tags and fusion partners are left off. Residues count along the entry.
UniProt P13595, residues 20-1115: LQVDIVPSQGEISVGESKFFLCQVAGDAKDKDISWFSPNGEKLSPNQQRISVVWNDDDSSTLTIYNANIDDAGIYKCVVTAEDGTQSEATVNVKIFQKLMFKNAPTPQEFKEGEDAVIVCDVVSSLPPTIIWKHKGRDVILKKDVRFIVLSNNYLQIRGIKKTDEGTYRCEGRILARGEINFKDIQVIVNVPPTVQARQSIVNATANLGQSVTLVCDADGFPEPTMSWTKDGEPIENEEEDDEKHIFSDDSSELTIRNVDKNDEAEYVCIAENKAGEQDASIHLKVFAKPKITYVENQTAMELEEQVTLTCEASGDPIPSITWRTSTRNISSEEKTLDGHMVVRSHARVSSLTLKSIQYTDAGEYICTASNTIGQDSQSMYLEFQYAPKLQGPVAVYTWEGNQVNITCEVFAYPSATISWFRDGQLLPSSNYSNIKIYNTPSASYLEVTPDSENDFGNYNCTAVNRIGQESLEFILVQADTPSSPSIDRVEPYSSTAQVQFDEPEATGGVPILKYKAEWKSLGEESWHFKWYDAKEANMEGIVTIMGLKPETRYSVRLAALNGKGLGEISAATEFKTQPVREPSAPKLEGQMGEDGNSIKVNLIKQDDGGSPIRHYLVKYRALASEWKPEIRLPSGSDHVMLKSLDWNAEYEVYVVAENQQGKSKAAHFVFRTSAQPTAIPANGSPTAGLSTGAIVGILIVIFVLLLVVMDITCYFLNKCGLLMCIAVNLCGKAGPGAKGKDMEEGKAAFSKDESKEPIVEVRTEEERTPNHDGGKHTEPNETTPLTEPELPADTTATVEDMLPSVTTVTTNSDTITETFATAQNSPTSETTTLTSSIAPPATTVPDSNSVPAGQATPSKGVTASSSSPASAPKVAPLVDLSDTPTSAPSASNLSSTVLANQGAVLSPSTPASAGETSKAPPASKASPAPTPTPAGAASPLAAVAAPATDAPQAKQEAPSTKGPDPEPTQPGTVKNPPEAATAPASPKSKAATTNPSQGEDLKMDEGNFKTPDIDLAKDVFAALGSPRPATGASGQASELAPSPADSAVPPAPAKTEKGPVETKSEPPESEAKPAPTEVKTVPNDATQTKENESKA
UniProt P13596, residues 20-858: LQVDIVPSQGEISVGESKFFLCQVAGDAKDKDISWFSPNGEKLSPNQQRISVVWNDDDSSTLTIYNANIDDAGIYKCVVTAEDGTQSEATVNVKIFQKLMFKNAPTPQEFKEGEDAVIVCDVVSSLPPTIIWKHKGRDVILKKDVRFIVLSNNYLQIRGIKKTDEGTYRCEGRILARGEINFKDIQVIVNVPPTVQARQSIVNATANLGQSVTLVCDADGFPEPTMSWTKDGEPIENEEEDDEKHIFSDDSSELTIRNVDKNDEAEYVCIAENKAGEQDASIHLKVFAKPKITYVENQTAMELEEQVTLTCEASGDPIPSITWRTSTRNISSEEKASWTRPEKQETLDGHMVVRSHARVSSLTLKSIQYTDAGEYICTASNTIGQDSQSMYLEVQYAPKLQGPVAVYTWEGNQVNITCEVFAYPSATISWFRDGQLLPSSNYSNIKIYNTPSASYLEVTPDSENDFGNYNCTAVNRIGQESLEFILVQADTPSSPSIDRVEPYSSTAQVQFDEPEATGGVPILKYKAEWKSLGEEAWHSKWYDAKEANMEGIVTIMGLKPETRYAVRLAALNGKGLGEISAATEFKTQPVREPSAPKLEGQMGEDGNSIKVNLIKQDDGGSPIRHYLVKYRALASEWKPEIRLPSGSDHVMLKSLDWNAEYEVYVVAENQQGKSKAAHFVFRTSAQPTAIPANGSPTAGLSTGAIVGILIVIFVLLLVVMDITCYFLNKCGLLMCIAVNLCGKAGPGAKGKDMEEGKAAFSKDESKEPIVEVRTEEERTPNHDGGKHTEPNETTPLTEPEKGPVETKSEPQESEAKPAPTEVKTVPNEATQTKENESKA

[2] = target: T2, Tissue kallikrein-related peptidase 8 (KLK8) in rat hippocampus (not stated (rat hippocampus; species of the transgene not told)) (UniProt O88780)
T2 sequence: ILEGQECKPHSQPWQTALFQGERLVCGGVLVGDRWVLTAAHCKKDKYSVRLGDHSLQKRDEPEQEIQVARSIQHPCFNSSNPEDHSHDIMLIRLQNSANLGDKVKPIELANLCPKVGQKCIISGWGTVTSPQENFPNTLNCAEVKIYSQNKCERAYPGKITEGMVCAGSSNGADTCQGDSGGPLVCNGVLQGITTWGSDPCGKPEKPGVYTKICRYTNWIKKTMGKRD

[3] = target: Neural cell adhesion molecule 1 (NCAM1) in HT22 cells (mouse (endogenous in HT22)) (UniProt P13595)
[4] = target: Neural cell adhesion molecule 1 (NCAM1) in rat hippocampus (rat (endogenous in rat hippocampus)) (UniProt P13596)

B1: Tissue kallikrein-related peptidase 8 (KLK8) in HT22 cells (enzyme, UniProt Q61955 33-260)
chain: ILEGRECIPHSQPWQAALFQGERLICGGVLVGDRWVLTAAHCKKQKYSVRLGDHSLQSRDQPEQEIQVAQSIQHPCYNNSNPEDHSHDIMLIRLQNSANLGDKVKPVQLANLCPKVGQKCIISGWGTVTSPQENFPNTLNCAEVKIYSQNKCERAYPGKITEGMVCAGSSNGADTCQGDSGGPLVCDGMLQGITSWGSDPCGKPEKPGVYTKICRYTTWIKKTMDNRD
- binding [3]: binds

B2: Tissue kallikrein-related peptidase 8 (KLK8) in rat hippocampus (enzyme, UniProt O88780 33-260)
chain: ILEGQECKPHSQPWQTALFQGERLVCGGVLVGDRWVLTAAHCKKDKYSVRLGDHSLQKRDEPEQEIQVARSIQHPCFNSSNPEDHSHDIMLIRLQNSANLGDKVKPIELANLCPKVGQKCIISGWGTVTSPQENFPNTLNCAEVKIYSQNKCERAYPGKITEGMVCAGSSNGADTCQGDSGGPLVCNGVLQGITTWGSDPCGKPEKPGVYTKICRYTNWIKKTMGKRD
- binding [4]: binds

Second part, the molecule after the results:

- binding [1]: binds
Molecule: Neural cell adhesion molecule 1 (NCAM1) in HT22 cells (from UniProt P13595 20-1115)

- binding [2]: binds
Molecule: Neural cell adhesion molecule 1 (NCAM1) in rat hippocampus (from UniProt P13596 20-858)

Reference: article PMC10115824
